Results on one substance are retold here after publication PMC9376389.

By UniProt entry, the sequences of proteins in these tests, tags left out.
UniProt P09528: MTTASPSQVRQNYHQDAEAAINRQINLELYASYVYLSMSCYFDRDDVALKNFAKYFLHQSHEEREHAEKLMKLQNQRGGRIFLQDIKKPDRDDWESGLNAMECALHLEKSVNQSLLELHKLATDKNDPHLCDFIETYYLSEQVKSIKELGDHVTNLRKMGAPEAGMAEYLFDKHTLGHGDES

Results are given in words; binding and its absence hold for the method and conditions named. Binding seen in cells or lysates may run through a third protein. Some binding calls cover weakened binding; strength is not graded here.

The target in the test is T1, nuclear receptor coactivator 4 (NCOA4) (mouse (endogenous in MLE-12)) (UniProt Q5U4H9).
T1 sequence: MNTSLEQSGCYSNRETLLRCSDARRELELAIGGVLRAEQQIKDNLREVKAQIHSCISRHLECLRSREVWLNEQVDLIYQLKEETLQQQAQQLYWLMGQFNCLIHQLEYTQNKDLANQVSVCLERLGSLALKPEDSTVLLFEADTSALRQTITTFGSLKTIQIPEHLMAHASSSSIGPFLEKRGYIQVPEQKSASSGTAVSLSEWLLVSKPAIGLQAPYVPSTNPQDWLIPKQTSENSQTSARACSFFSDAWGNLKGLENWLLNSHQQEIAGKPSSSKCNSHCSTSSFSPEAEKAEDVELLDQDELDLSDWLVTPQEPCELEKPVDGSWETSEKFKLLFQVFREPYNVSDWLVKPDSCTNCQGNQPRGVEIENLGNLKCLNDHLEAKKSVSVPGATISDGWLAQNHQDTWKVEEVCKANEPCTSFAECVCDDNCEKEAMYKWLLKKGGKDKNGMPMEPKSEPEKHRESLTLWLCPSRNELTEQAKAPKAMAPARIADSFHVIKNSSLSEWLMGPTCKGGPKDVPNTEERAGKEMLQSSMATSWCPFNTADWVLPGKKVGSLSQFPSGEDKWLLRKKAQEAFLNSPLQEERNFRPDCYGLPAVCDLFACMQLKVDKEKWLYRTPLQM
Briefly: co-IP; MLE-12 cell lysate (50 mmol/L Tris-HCl, 150 mmol/L NaCl, 1% NP-40, 1 mmol/L EDTA) precleared with rabbit IgG and protein A/G agarose, immunoprecipitated with anti-NCOA4 for 24 h at 4°C, blotted for FTH1; cells with or without LPS and with scramble or YAP1 overexpression; IgG as control.

For the substance “ferritin heavy chain 1 (FTH1) (from UniProt P09528 1-182)”, the binding entry is reported as “binds”.
